The target of assay [1] is T1, Rubisco (H. neapolitanus Form IA, L8S8 holoenzyme of CbbL and CbbS) (H. neapolitanus) (UniProt O85040+P45686). Description: pull-down.
Assay [2] addresses T1, Rubisco (H. neapolitanus Form IA, L8S8 holoenzyme of CbbL and CbbS) (H. neapolitanus). Description: crystal structure.

Chains of the proteins cited; added tags and fusions are not shown. Lines headed by an entry give the natural chain unless they say otherwise; changes in a name come on top.
UniProt O85040: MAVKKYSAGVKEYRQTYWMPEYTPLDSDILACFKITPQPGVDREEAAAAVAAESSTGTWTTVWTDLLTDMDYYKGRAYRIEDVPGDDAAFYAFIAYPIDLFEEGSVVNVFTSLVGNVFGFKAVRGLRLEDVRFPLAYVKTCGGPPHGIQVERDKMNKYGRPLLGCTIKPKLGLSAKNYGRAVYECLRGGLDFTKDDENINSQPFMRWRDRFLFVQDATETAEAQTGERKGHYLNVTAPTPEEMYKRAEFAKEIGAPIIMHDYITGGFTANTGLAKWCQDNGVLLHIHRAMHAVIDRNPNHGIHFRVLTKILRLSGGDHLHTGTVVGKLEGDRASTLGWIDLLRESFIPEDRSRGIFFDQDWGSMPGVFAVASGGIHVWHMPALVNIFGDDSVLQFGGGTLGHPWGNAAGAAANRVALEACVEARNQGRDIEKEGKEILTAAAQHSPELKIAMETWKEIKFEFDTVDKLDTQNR
UniProt P45686: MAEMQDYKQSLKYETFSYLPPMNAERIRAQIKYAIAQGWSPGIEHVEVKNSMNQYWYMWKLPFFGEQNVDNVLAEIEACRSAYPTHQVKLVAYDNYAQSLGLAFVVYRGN
UniProt O85041: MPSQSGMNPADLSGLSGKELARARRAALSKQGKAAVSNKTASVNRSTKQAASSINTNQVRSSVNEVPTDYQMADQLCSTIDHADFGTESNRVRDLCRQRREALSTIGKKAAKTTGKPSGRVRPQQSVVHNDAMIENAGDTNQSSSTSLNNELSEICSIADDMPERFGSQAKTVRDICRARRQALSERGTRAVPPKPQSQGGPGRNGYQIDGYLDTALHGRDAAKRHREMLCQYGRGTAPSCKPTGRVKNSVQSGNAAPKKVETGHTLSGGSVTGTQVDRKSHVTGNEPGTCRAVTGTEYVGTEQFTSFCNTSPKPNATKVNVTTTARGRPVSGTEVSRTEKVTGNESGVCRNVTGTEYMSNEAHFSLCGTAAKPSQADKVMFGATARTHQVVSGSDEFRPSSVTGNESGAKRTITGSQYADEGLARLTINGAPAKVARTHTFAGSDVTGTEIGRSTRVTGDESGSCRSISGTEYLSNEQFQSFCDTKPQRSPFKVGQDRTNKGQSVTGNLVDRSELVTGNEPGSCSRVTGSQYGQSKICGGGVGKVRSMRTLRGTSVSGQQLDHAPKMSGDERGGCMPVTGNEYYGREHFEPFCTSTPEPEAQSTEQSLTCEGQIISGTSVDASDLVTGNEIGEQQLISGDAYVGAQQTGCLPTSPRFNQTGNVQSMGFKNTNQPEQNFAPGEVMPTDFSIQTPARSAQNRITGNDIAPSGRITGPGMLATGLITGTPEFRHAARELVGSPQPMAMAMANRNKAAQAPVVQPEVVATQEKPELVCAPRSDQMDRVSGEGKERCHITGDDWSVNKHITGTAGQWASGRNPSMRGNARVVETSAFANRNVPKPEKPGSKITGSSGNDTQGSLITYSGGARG

These are yes or no findings as the source states them, for the method shown. For some assays here: In cells and extracts the contact can be indirect. Some binding calls cover weakened binding; strength is not graded here. For some assays here: Where a sequence is shown, tags or fusion partners need not be part of it.

In the case of “CsoS2 (H. neapolitanus), full length, 6xHis-tagged (from UniProt O85041 1-869)”, the binding entry in assay [1] is “binds”.

Regarding GRDLARARREALSQQGKAAV [N*-peptide (as bound in the crystal structure of the Rubisco-N* fusion)], the binding result in assay [2] was “binds”.
